The results in this text go back to PubChem BioAssay AID1508600 (Functional Genomics Laboratory (NCATS/FGL), 2020).

Hit rate of the full screen: of about 53,000 sequences, about 3,700 (7%) were called active.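 The calls were made as follows: active = gene knockdowns whose robust z-score for IL-1 alpha signal is at least 2 or at most -2, so actives lie on both sides; inactive = the rest.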 The list shows a part of the results.

This test can be described thus: Components of the Cytosolic LPS Sensing Pathway: Gene Identification via Genome-wide siRNA Screen.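 Also: robust z of the log signal after scaling to non-targeting control siRNA wells of the plate.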 As to conditions: RAW264.7 macrophages, IL-1a HTRF, actives lie on both sides, screened at 100 nM (by protocol), cells primed 5 h with Pam3CSK4 first. The gist of the method: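 Read-out: IL-1a HTRF on supernatant, divided by plate negative-control median ×100, log-transformed and converted to robust z-score. Cells were RAW264.7 given 100 nM siRNA, Pam3CSK4-primed 5 hours, then LipidA-transfected 24 hour.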
In general terms: TR-FRET usually uses a lanthanide donor and a delayed reading to cut background.
With CCAUCUCAGAAAAGCUUGUTT against Tmed1, the z-score was inactive: 0.417.

Consider GGAAUAUCUGAUAUCAGUATT against Mdga2, for which the z-score is inactive: 0.0727.

Take GGACAAACUACUUUUGUACTT against Tmprss3: the z-score was inactive: -0.226.

As to GGAGUGUCUUUUCUUUAAUTT against Acvr2a, the z-score was inactive: -0.0225.

Turning to “GGGUAUUAAAACCUCACUUTT against 4931406H21Rik”, the z-score was active: -2.58.

For the sequence GCGAUUGAAAUGAGAGCUCTT against Hgd, the z-score was inactive: -1.55.

GGAAAUCAGAGAAUACUUCTT against Mfsd14b: the z-score is active: 2.04.

In the case of GGCCUUUUAAAUGUGUCCUTT against Zfp770, the z-score is inactive: -1.83.

As for CCAUGCAACUUACCAAAGATT against Lrrc8d, the z-score was inactive: 0.183.

In the case of “GGAAGCAACAACAUAAACUTT against 4933440M02Rik”, the z-score was inactive: -0.206.

Take GGAAUCUGUUGUUUCUCUUTT against Lpcat3: the z-score is inactive: 0.612.

In the case of GGAGCUGUCACACCAUGAATT against Twsg1, the z-score is inactive: 0.0846.

Regarding GGGUGAGUACUCUUUAAAUTT against Nudt4, the z-score was inactive: -1.53.

With GCGUGUGGAAGAAAAAGAATT against Nedd8, the z-score was inactive: -0.952.

As to GCACACACGUAGAAGCGGATT against Erdr1, the z-score was inactive: -0.597.

As to GGGAGUUACAGCGGUAUGUTT against Krt9, the z-score is inactive: -0.686.

With GGCUAACCUGAGCAAACAGTT against Plvap, the z-score is active: -2.21.

For the sequence GGAAGGCAUUUUUCAGGUATT against Popdc3, the z-score is inactive: 1.22.

On to GGAGUUGUCUACCAAAGUUTT against Reep5, for which the z-score was inactive: 0.609.

As for ACUCAGUAGUUAAUGUGGGTT against Ypel2, the z-score is inactive: 0.0543.

For the sequence CCCUAAAAAUUUUACCAAGTT against Mpp6, the z-score is inactive: 0.841.

On to CCUGAAUGACCUAGGGCCUTT against Adam8, for which the z-score was inactive: 0.286.

Regarding CCAGAAGUCUUGCUGUCUGTT against Arpp21, the z-score was inactive: -0.427.

Turning to GCCCGAGAAGUGAAUCUUCTT against Pop7, the z-score is inactive: 1.2.

For the sequence GCAUUUAAUGGCAUUACUGTT against Otol1, the z-score was inactive: 0.596.

In the case of CGUUAUUUGAUUUCUUGGATT against Tdrd3, the z-score was inactive: 0.373.

As for GCCUUCCUGAAUUUAAAGATT against Myo5b, the z-score is inactive: 1.33.

GCCCAAAAAUACUGGAUAUTT against Atp6ap2: the z-score is inactive: -2.

As to GGUGCAAAGCCCUUUAAGUTT against Klf7, the z-score was inactive: -0.334.

As to GCAUUAGCUGAUCAGCAUATT against Herc3, the z-score was inactive: 0.836.

As to GCCACACACCUUCUAUAAUTT against Ptprs, the z-score is inactive: -0.62.

As to CCAAUUACCUGAAUAAAGCTT against Epb41l5, the z-score is inactive: 1.19.

Regarding GGUUCUGGUGGUGAAUGUGTT against Kcnd1, the z-score is inactive: -1.51.

Regarding GGCUUCCUCAUCGAUAUAATT against Ccnh, the z-score was inactive: 0.21.

Take GGAGAUCAAAGAUUUGAUUTT against Pi4k2a: the z-score was inactive: 1.75.

As to GCACUGAUGAUGUGGUGGCTT against Smdt1, the z-score was inactive: 1.63.

GCUGUUUUACCUUAAUCCCTT against Tnfsf18: the z-score was inactive: 0.601.

Consider GGCCAGGUUGAGGAUUUUGTT against Nop58, for which the z-score was inactive: -0.807.

Turning to GGACACAUAAUGUCUACCUTT against Unc93a, the z-score was inactive: -0.629.

As to GGACCAGAGUAACUUGAAUTT against Zfp128, the z-score is inactive: -0.66.

Regarding “CCAUUAAUUGAUGAUACUCTT against 1700019D03Rik”, the z-score was inactive: 0.531.

On to GCAACAUGGAAUGACCGCUTT against Cul2, for which the z-score was inactive: 0.553.

As for GGGUACCUGUCCAAGGUCATT against Mfn2, the z-score was inactive: 0.849.

Take GCGGUCAUGACAAGUCACUTT against Slc9a7: the z-score is inactive: -0.24.

In the case of GGCUGAAGAGGAUCGGUACTT against Atpif1, the z-score is active: 2.08.

With GGAAUUUGAAGACACAGAATT against Arl2bp, the z-score was inactive: -0.278.

In the case of GCAACUAUAGUGCUCUCACTT against Ggt7, the z-score was inactive: 0.974.

Turning to GGCCUAUCAGAUAAAGAAGTT against Vps37b, the z-score is inactive: -1.04.

Turning to GGGUGAGUUGUUAAAUCCUTT against Marchf11, the z-score is inactive: -0.443.

GGAAGAGAGACUCAGCUCUTT against Galp: the z-score was inactive: -0.832.

Turning to GCCGUAGGUUAGAGAAUCGTT against Nxnl1, the z-score was inactive: -0.348.

GGAAGCUAUGAGUUUGGAATT against Rsph1: the z-score is inactive: -0.732.

Turning to GGACCUUUAGCUGGUUUAGTT against Sowaha, the z-score was inactive: 0.559.

Consider GCUUAGAACCCUUUUACAATT against Anp32a, for which the z-score was inactive: -0.14.

As for GGGUCUUGUGAGAAAGUAUTT against Fads1, the z-score is inactive: -1.37.

For GGUGACAAACAAAAACAAATT against Zdhhc14, the z-score was inactive: -1.72.

For GGAAAACAGCUUUGAUUGGTT against Tmem232, the z-score is inactive: 0.868.

For GGACAUGCAGCAAAUCCAUTT against Ninj1, the z-score is inactive: -0.264.

Take GGUACCUUUGCUACAUAAATT against Pramel48: the z-score was inactive: 0.869.

UCUCCUUCCUAACUUCAACTT against Tmem252: the z-score was inactive: 0.747.

As for CCCUGUGAAAUAUUGAUAATT against Vmn1r32, the z-score is inactive: 0.0683.

Regarding GGAGAACGGCUACAACACATT against Fgf22, the z-score is inactive: -1.41.

For GGGAGUAGAUUCCAUUCCATT against Rnpep, the z-score is inactive: 1.63.

In the case of CCUACUACACCACUUGGGUTT against Dpm2, the z-score is inactive: 0.365.

Take “GGAGCUACAAUCUGAAGUATT against Ppp1r2-ps9”: the z-score was inactive: 1.47.

With GGGAUGUAGUAAGCAAAGUTT against Gpc4, the z-score was inactive: 0.69.

GGAUCAGAUAAAGCAAAUUTT against Eif3b: the z-score is inactive: 0.0607.

For the sequence GGUGUAACAUCAAAGCAGATT against Tkfc, the z-score was inactive: -0.216.

Turning to GGACUUGCCUUGAUCGCUATT against Mars2, the z-score was inactive: 0.853.

Turning to UGCCACUGCCAAAAAAUAATT against Tex18, the z-score is inactive: -0.838.

For the sequence GGAAUUCCAUUUUCAGAAATT against Lrrd1, the z-score is inactive: -0.393.

In the case of GGAGAAGAAGGUUCUUGCCTT against Hoxb13, the z-score was inactive: -1.03.

GCAGAAGUGCUAUUCUUGUTT against Cnbp: the z-score was inactive: 0.108.

For GGGACUGGAAUCAAUGAACTT against Rgn, the z-score was inactive: 0.396.

As to GCUUUGGACGAACGAAUGCTT against Rassf6, the z-score was inactive: 0.832.

Turning to GCAACUGUUCUACGUCUGATT against Tmprss2, the z-score was inactive: 1.63.

GGGUCAAAGGUCAAGGCUCTT against Gpr20: the z-score was inactive: 0.074.

As for GGUUGACCAGAUUGAGAAATT against Scaf11, the z-score was inactive: -0.128.

For “GGACAAAAAAGAAGGUGAATT against A730049H05Rik”, the z-score is inactive: -1.12.

For the sequence GGUCUUCACACAACGAACUTT against Mxd4, the z-score is inactive: -0.618.

As to CCAUUAAGCAGCAAUAUUUTT against Pcdhga11, the z-score is inactive: -0.0617.

GGAAGAAGGGUUUCAACGGTT against Mef2d: the z-score is inactive: 0.0569.

Regarding GGACUUCACUUUUCUAUGATT against Tmem64, the z-score was inactive: 1.47.

With GGAGACCUUCUGUUUUCUGTT against Ptcd1, the z-score is inactive: -0.303.

On to GGAUUUGGUGAACAUCCGUTT against Setd6, for which the z-score is inactive: -0.114.

As for GGUGGAUCUGAAUAAGUGCTT against Sdhb, the z-score was inactive: -1.37.

For GCUGAUUGUCAAGGAAUAUTT against Tspyl1, the z-score is inactive: -0.816.

Regarding CGAGAUUUUUGUAUCGUUUTT against Kat14, the z-score was inactive: 1.57.

On to GAUGCUGGUUGACCUCCUATT against Olfr368, for which the z-score was inactive: 0.288.

For the sequence “GCCCUGAAAUAGAAGUUGGTT against A930024E05Rik”, the z-score is inactive: 0.735.

Consider UGCCUCAAUCAUAAGUCCCTT against Olfr730, for which the z-score was inactive: -0.551.

For GGUCGUGAGCUUUAUGAGATT against Myo1d, the z-score is inactive: 0.429.

As to CCAAAGUGUUCCAAAAUCATT against Zfp729a, the z-score is inactive: -0.296.

In the case of GCAUUAGGAAAGUAAUAAGTT against Olfr11, the z-score was inactive: -0.513.

As to GGAGAGAUGGAUACAUUUCTT against Atp5j, the z-score was inactive: 1.65.

As to GGAAGAUGAUGCUUUCAAATT against Il18, the z-score is inactive: -0.0314.

With GGUGCUGGAUGAAUUUGGGTT against Zp1, the z-score was inactive: -0.416.

Take GGAUGCUUGGCUGAAGAACTT against Ptprs: the z-score is inactive: -0.296.

Turning to GGACUUCACAAUUUAAGUUTT against Il5, the z-score was inactive: 0.141.

For the sequence AACUAUACGUCCGCUCACUTT against C8g, the z-score is inactive: -0.213.

On to UCACAACUGUCUGUUCUCATT against Klk1b3, for which the z-score is inactive: -1.19.

For GCAUUGUUAGUACUUAGCUTT against Vmn1r216, the z-score is inactive: 0.0791.

For the sequence CGACAACAAUCUGGCCUAUTT against Ap2s1, the z-score was active: 2.09.

On to GGUCAAGCCAGUGGGCUAATT against Tpgs1, for which the z-score was inactive: -1.38.

In the case of GCCUCUUUAUAAUAUAAGGTT against Pcgf6, the z-score was inactive: -0.687.

GGAGCUGAUGACUUCAGGCTT against Mmp19: the z-score is inactive: 1.17.

On to GGAUCUGGUGACAAACGUATT against Cabyr, for which the z-score was active: 2.04.
